# According to the supplement of paper PMC8326762, “A Small Molecule Inhibitor of Pex3–Pex19 Interaction Disrupts Glycosome Biogenesis and Causes Lethality in Trypanosoma brucei” (Frontiers in Cell and Developmental Biology, 2021):
# Counter-ions that a name gives are not always drawn. This is one part of the list. The data scatter; read single values as rough.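 Yeast growth was measured as optical density at 600 nm. Two-hybrid strains grew without histidine, so growth depended on Pex3–Pex19 binding. A compound was trypanosome-selective if it reduced growth of the trypanosome-pair strain by over 65% and of the human-pair strain by under 65%.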
# Legend:
# [1] = test system: Saccharomyces cerevisiae HF7c pdr5Δ; experiment: general growth inhibition of yeast HF7c pdr5Δ in -Leu -Trp medium, relative to DMSO; higher = stronger general growth inhibition; details: 100 µM; 24 h
# [2] = test system: human PEX3-PEX19 interaction (yeast two-hybrid); experiment: growth inhibition of yeast two-hybrid strain reporting HsPex3-HsPex19 interaction, relative to DMSO; higher = stronger inhibition of human Pex3-Pex19 interaction / growth; details: 100 µM; 24 h; 3-aminotriazole 10 mM
# [3] = test system: T. brucei Pex3-Pex19 interaction (yeast two-hybrid); experiment: growth inhibition of yeast two-hybrid strain reporting TbPex3-TbPex19 interaction, relative to DMSO; higher = stronger inhibition of T. brucei Pex3-Pex19 interaction / growth; details: 100 µM; 24 h
SMILES,general growth inhibition [1],growth inhibition [2],growth inhibition [3]
CC(C)Cc1ccc([C@H](C)C(=O)O)cc1 [S(+)-Ibuprofen],71.1%,73.9%,81.7%
CC(C)c1ccc2c(c1)c(SC(C)(C)C)c(CC(C)(C)C(=O)O)n2Cc1ccc(Cl)cc1,27.2%,16%,23.9%
"Clc1ccc(C(c2ccccc2Cl)C(Cl)Cl)cc1 (stereo unspecified) [1-(2-Chlorophenyl)-1-(4-chlorophenyl)-2,2-dichloroethane]",29%,33.6%,46.7%
CC[C@H](C)C(=O)O[C@H]1CCC=C2C=C[C@H](C)[C@H](CC[C@@H]3C[C@@H](O)CC(=O)O3)[C@H]21 [Mevastatin],63.9%,50.4%,64%
CC1=C(/C=C/C(C)=C/C=C/C(C)=C/C=C/C=C(C)/C=C/C=C(C)/C=C/C2=C(C)C(=O)[C@@H](O)CC2(C)C)C(C)(C)C[C@H](O)C1=O [Astaxanthin],35.4%,36.1%,47.5%
Cc1nc(N=Nc2ccc(C(=O)O)cc2)c(COP(=O)(O)O)c(C=O)c1O,48.3%,50.1%,66%
CC(=O)SCC[N+](C)(C)C [Acetylthiocholine chloride],48.6%,50.4%,63.3%
COc1cc2c(cc1OC)-c1c/c(=N\c3c(C)cc(C)cc3C)n(C)c(=O)n1CC2 [Trequinsin hydrochloride],67.3%,51.1%,64%
CC[N+](C)(C)c1cccc(O)c1 [Edrophonium chloride],37.8%,31.3%,58.5%
[Cl-].[Li+] [Lithium Chloride],32.4%,37.3%,71.9%
Nc1c(S(=O)(=O)O)cc(Nc2ccc(Nc3nc(Cl)nc(Nc4cccc(S(=O)(=O)O)c4)n3)c(S(=O)(=O)O)c2)c2c1C(=O)c1ccccc1C2=O [Reactive Blue 2],19.4%,-16.4%,2.67%
COCCOc1cc2nc[nH]c(=O)c2cc1OCCOC,49%,44.3%,64.8%
COc1cc(CC(=O)O)ccc1O [4-Hydroxy-3-methoxyphenylacetic acid],15%,4.69%,26.5%
CC(C)N(CCC(=O)c1ccc2ccccc2c1)Cc1ccccc1,89.5%,84.8%,82.4%
S=C(Nc1ccccc1)Nc1nccs1 [1-Phenyl-3-(2-thiazolyl)-2-thiourea],56.3%,42.4%,61.3%
CC1=C(CC(=O)O)c2cc(F)ccc2/C1=C\c1ccc([S+](C)[O-])cc1 (stereo unspecified) [Sulindac],35.8%,36.5%,55.8%

SMILES,general growth inhibition [1],growth inhibition [2],growth inhibition [3]
CC(=O)Oc1cc(C(F)(F)F)ccc1C(=O)O [Triflusal],54.3%,47.1%,69.9%
NCCCCC(=O)O [5-Aminovaleric acid hydrochloride],35.9%,34.9%,56.2%
Nc1nc2ccc(OC(F)(F)F)cc2s1 [Riluzole],69.3%,72.3%,60.1%
Cc1cccc(/C=C/c2ccccc2)n1,37.2%,30.3%,52.3%
CC(C)C(=O)c1c(C(C)C)nn2ccccc12 [Ibudilast],41.5%,37.6%,38.8%
COCc1nc2c([nH]1)c(=O)n(C)c(=O)n2CC(C)C [8-Methoxymethyl-3-isobutyl-1-methylxanthine],53.5%,46.1%,66.6%
Cc1cccc(C)c1NC(=O)C(C)N (stereo unspecified) [Tocainide hydrochloride],37.6%,50%,61.1%
CCCOc1ccccc1-c1nc2[nH]nnc2c(=O)[nH]1 [Zaprinast],46.5%,44.7%,72.8%
Nn1nnc2ccccc21 [1-Aminobenzotriazole],42.1%,43.8%,67.2%
CCc1cccc(N(C)C(=N)Nc2cccc3ccccc23)c1,9.25%,5.16%,26.2%
CCCCOc1cc(CC2CNC(=O)N2)ccc1OC (stereo unspecified),49.5%,44.4%,62.8%
"CC1(C)CCC=[N+]1[O-] [5,5-Dimethyl-1-pyrroline-N-oxide]",34.3%,41.7%,66.6%
CN(C)c1nc(N(C)C)nc(N(C)C)n1 [Altretamine],8.34%,10.9%,30.7%
CCOC(=O)c1cnc2c(cnn2CC)c1NN=C(C)C [Etazolate hydrochloride],42%,35.3%,38.2%
"Cn1c(=O)c2[nH]c(-c3ccccc3)nc2n(C)c1=O [1,3-Dimethyl-8-phenylxanthine]",45.6%,41.5%,62.9%
COc1ccc([C@@H]2Sc3ccccc3N(CCN(C)C)C(=O)[C@@H]2OC(C)=O)cc1 [Diltiazem hydrochloride],14.2%,13%,33.1%

# Taken from above:
# CCc1cccc(N(C)C(=N)Nc2cccc3ccccc23)c1 | growth inhibition [3]: 26.2%
# Nn1nnc2ccccc21 [1-Aminobenzotriazole] | general growth inhibition [1]: 42.1%
